Drawing on PMC11830769, this text covers binding for one substance.

Protein sequences, listed by entry. Tags and fused reporters are not part of them. Lines headed by an entry give the natural chain unless they say otherwise; changes in a name come on top.
UniProt Q93640: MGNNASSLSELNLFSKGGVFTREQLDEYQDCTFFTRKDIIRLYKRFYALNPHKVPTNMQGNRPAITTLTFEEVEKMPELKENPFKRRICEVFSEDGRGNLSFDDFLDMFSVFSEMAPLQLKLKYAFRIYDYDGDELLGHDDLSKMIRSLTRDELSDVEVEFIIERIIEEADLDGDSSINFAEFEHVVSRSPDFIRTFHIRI

No constants are given. Whether binding was seen depends on the method and setting. In cells and extracts the contact can be indirect. Binding calls can cover weak binding; strength is not graded here. Where a sequence is shown, tags or fusion partners need not be part of it.

The target in this assay is T1, nematode ANOH-1 (Anoctamin-1, C. elegans) with an HA-tag (C. elegans) (UniProt G5EBW3).
T1 sequence: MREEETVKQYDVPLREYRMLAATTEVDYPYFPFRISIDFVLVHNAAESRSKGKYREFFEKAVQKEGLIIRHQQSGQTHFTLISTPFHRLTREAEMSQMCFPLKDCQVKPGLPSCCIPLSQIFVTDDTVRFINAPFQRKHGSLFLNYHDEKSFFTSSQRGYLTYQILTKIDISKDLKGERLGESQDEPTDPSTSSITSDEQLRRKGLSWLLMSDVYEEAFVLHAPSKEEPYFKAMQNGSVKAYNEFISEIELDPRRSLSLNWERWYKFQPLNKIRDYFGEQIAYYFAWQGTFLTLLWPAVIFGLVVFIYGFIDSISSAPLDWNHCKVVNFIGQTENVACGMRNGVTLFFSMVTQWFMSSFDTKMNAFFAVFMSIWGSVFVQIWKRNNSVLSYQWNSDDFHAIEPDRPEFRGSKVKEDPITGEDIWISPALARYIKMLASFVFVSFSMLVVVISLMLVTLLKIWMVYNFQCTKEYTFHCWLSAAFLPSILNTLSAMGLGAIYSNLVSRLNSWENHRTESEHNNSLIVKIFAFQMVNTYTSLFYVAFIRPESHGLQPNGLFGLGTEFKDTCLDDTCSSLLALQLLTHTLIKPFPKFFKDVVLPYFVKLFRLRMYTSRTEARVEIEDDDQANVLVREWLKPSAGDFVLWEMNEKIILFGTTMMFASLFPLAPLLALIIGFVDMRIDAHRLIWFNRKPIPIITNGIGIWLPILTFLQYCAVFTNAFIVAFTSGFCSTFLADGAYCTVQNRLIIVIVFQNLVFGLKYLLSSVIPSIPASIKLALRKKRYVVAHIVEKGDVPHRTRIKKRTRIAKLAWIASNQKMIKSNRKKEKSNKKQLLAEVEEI
The experiment in a line: co-IP; transfected HEK293T cells lysed in TAP buffer (20 mM Tris-HCl pH 7.5, 150 mM NaCl, 0.5% NP-40, 1 mM EDTA); supernatant incubated with anti-HA agarose affinity gel 4 h at 4 °C; beads washed 3 times with TAP buffer; SDS-PAGE and immunoblot. In general terms: A western blot detects proteins with antibodies after separation by electrophoresis.

As to nematode CALM-1 (from UniProt Q93640), the binding result is recorded as “binds”.
